Reference: PubChem BioAssay AID743454 (Peter MacCallum Cancer Centre, 2014)

Assay: 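Knock-downs lowering viability or raising caspase 3/7 activity in vorinostat-treated resistant cells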 (primary screen)
Cells: human HCT116-VR colon cancer cells, selected for vorinostat resistance
Knock-down reagent: siRNA pool against human genes, 40 nM siRNA pool
Time to read-out: vorinostat for 24 h, read-out about 72 h after transfection
Challenge: vorinostat at 2.5 µM final
Measured: 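Two measures, CellTiter-Fluor viability and luminescent caspase 3/7 activity, each as fold change against same-plate mock wells, mean of duplicates, then screen-wide robust z-score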
Reading the numbers: viability robust z-score: higher = more viable cells than screen typical; caspase robust z-score: higher = more caspase 3/7 activity than screen typical
Rule for the call: 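a knock-down is a hit when classed RV1 or RV2 for lowered viability, or CA1 or CA2 for caspase activation; those lethal without drug were dropped; hits were retested singly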
Here is an unselected part of about 18,000 reagents tested. In the full data, 450 (2.5%) got an active call. 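Single biological run; no consistent viability z cut-off exists, so the class columns, not z-scores, define the calls.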

The opening 2 records, ahead of the listing:
Gene | viability hit class | caspase hit class | viability robust z-score | caspase robust z-score | Call
MPEG1 | no change | no change | -1.04 | -0.68 | inactive
ISOC1 | no change | no change | 1.63 | -0.29 | inactive

Results, from the first entry:
Gene | viability hit class | caspase hit class | viability robust z-score | caspase robust z-score | Call
MPEG1 | no change | no change | -1.04 | -0.68 | inactive
ISOC1 | no change | no change | 1.63 | -0.29 | inactive
OPN1SW | no change | no change | -2.67 | 1.75 | inactive
C4BPB | no change | no change | 1.16 | -0.69 | inactive
GPM6A | no change | no change | 0.13 | -0.45 | inactive
ASB2 | no change | no change | -0.06 | 0.2 | inactive
GCOM1 | no change | CA1 (caspase activation) | -0.92 | 5.62 | active
NBPF10 | no change | no change | -0.04 | -0.1 | inactive
UTP14C | no change | no change | -0.52 | -0.05 | inactive
TRIML1 | no change | no change | -1.29 | 0.82 | inactive
HPRT1 | no change | no change | -3.19 | 1.59 | inactive
RNF157 | no change | no change | -1.71 | 4.98 | inactive
CA7 | no change | no change | -0.32 | -0.67 | inactive
C1orf159 | no change | no change | -0.77 | -0.38 | inactive
CHORDC1 | no change | no change | -2.15 | 3.51 | inactive
CLEC4A | no change | no change | -1.65 | 2.96 | inactive
ATOH8 | no change | no change | 0.08 | -0.63 | inactive
NEIL2 | no change | no change | 0.89 | 0.24 | inactive
MRPL1 | no change | no change | 0.94 | -0.64 | inactive
DTNB | no change | no change | -1.14 | -1.14 | inactive
RPS6KB1 | no change | no change | -0.53 | -1.46 | inactive
GAB3 | no change | no change | 0.33 | 1.45 | inactive
DENND5B | no change | no change | -0.06 | -0.77 | inactive
